The other results are listed elsewhere or left out.

Protein sequences, listed by entry. Tags and fused reporters are not part of them. Lines headed by an entry give the natural chain unless they say otherwise; changes in a name come on top.
UniProt Q13490, whole entry, looked up: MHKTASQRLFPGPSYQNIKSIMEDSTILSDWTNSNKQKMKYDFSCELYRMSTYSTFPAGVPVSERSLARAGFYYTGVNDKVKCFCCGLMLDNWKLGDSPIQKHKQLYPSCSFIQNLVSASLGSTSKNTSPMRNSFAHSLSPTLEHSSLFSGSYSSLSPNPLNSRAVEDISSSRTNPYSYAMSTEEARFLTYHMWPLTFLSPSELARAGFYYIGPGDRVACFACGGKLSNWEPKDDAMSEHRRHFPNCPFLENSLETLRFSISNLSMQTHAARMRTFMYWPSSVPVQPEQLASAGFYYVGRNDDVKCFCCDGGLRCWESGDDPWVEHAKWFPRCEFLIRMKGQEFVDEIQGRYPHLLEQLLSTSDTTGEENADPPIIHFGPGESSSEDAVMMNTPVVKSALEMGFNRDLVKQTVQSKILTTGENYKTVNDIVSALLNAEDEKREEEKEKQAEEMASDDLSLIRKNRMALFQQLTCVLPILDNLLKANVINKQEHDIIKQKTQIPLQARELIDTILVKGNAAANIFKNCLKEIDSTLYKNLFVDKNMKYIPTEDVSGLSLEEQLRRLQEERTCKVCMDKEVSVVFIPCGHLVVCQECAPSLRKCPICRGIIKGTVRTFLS
UniProt Q9UHR4: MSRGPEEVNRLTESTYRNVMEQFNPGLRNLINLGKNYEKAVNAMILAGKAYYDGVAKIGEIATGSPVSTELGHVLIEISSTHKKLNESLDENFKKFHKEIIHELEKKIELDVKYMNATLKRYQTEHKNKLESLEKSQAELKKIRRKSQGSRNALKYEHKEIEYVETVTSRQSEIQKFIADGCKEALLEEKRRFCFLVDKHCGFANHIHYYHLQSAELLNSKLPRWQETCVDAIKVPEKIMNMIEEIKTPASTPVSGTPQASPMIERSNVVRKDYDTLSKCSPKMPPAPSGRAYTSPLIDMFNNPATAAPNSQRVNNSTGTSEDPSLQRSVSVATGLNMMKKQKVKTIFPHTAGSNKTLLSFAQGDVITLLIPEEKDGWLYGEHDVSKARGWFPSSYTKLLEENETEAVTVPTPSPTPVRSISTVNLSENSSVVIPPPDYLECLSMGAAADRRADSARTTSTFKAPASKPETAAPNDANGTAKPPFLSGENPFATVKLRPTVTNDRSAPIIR
UniProt O95817, whole entry, looked up: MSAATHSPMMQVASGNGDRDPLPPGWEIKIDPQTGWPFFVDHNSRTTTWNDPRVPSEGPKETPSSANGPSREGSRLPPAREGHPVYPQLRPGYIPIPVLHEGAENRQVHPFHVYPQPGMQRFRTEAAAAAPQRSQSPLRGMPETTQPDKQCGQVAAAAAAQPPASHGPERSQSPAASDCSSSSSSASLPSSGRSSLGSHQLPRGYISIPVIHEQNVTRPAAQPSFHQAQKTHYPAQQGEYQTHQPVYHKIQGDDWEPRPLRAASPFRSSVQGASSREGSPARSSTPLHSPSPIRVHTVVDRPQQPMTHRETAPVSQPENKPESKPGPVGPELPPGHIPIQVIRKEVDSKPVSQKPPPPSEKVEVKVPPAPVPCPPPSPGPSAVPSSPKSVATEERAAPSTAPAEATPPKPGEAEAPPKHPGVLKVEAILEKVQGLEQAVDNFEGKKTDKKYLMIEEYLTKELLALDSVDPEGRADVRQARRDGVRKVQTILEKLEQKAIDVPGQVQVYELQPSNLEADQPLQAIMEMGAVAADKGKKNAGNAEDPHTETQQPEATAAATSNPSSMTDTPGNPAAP
UniProt Q8TDN6: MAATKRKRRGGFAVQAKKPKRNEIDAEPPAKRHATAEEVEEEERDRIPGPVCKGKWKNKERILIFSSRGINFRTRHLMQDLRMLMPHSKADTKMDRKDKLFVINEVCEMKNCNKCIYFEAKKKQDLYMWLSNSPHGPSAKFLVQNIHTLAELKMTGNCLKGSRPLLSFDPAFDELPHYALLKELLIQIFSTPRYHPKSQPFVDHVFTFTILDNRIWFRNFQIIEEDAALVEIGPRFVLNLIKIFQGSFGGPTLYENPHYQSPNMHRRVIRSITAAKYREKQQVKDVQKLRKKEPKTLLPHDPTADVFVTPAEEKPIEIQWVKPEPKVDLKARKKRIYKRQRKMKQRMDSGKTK
UniProt Q12981: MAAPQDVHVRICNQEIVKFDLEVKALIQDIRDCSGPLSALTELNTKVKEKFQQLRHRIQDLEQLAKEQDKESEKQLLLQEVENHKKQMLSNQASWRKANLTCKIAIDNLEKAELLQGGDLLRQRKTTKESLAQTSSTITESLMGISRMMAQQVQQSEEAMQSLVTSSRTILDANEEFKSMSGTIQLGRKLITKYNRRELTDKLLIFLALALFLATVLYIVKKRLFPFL
UniProt O75934: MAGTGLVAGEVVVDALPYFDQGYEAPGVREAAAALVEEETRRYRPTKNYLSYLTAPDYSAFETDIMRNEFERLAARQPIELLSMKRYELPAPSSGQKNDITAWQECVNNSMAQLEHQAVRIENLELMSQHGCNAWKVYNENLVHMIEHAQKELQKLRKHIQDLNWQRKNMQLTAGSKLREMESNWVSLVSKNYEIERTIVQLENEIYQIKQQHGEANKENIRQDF
UniProt P30043: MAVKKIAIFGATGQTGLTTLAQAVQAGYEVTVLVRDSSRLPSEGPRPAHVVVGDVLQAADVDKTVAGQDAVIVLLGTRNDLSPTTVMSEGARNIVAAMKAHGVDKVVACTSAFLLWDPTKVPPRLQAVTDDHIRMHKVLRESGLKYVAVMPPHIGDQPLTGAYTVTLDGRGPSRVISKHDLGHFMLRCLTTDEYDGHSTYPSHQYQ
UniProt Q86WA6: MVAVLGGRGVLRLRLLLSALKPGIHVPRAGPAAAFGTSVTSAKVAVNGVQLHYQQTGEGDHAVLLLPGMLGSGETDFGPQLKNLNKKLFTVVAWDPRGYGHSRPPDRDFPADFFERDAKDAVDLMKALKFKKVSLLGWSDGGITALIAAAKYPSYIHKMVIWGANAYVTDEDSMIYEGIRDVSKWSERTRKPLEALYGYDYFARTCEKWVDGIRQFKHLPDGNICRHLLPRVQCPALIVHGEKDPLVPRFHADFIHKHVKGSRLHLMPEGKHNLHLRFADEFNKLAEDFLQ
UniProt O95999: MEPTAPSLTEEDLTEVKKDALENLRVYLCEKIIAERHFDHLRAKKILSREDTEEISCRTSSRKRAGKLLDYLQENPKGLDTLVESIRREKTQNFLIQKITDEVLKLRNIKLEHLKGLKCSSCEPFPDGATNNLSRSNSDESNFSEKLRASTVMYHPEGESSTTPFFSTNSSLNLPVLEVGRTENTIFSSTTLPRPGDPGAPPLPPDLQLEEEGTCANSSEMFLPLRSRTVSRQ
UniProt Q5VW32: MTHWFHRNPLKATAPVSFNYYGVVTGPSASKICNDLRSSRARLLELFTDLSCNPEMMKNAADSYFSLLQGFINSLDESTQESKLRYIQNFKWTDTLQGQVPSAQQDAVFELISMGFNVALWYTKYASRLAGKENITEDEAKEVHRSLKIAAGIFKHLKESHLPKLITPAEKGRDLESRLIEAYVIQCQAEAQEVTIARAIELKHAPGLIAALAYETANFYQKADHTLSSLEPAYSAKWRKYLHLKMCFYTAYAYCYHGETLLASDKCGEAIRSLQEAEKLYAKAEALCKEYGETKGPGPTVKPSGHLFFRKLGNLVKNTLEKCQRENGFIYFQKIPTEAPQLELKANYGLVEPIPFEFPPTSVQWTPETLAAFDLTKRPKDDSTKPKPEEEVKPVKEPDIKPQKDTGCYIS
UniProt Q06187: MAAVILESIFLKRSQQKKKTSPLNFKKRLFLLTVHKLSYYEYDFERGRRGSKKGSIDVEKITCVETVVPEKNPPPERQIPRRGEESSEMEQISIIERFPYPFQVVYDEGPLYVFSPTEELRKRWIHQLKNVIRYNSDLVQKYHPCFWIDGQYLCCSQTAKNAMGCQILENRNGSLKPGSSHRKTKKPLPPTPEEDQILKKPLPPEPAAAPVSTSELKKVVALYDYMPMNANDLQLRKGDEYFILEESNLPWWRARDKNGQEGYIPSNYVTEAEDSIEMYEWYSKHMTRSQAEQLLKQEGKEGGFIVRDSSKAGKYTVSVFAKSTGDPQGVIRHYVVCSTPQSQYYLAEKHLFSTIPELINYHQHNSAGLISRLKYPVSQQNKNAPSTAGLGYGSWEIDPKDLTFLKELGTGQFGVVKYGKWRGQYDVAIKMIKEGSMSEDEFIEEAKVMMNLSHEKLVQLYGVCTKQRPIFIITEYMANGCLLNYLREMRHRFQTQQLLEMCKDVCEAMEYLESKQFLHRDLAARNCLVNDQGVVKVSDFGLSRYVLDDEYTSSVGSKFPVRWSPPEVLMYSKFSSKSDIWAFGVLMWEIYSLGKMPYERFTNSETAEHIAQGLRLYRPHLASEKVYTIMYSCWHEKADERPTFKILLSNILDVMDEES
UniProt Q9P287, whole entry, looked up: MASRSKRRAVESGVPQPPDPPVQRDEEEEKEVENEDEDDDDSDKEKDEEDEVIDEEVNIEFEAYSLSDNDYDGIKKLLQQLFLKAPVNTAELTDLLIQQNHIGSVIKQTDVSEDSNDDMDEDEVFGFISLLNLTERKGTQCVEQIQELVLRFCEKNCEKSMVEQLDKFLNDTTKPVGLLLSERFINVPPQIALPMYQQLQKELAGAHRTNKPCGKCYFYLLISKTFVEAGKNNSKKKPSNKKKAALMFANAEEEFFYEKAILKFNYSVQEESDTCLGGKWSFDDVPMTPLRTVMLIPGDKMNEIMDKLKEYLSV
UniProt O95429: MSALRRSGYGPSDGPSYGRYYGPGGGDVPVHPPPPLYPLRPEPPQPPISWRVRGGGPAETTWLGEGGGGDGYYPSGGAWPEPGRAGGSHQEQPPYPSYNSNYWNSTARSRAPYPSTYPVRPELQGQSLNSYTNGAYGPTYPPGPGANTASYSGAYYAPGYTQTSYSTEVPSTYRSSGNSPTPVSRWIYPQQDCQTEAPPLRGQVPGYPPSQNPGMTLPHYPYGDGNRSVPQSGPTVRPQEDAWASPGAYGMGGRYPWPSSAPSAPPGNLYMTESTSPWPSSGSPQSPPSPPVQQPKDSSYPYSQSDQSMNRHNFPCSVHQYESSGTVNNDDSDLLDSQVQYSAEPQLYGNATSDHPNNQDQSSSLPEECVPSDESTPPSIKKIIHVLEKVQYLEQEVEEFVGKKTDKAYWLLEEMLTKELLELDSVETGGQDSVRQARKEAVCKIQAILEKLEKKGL
UniProt Q9BX63: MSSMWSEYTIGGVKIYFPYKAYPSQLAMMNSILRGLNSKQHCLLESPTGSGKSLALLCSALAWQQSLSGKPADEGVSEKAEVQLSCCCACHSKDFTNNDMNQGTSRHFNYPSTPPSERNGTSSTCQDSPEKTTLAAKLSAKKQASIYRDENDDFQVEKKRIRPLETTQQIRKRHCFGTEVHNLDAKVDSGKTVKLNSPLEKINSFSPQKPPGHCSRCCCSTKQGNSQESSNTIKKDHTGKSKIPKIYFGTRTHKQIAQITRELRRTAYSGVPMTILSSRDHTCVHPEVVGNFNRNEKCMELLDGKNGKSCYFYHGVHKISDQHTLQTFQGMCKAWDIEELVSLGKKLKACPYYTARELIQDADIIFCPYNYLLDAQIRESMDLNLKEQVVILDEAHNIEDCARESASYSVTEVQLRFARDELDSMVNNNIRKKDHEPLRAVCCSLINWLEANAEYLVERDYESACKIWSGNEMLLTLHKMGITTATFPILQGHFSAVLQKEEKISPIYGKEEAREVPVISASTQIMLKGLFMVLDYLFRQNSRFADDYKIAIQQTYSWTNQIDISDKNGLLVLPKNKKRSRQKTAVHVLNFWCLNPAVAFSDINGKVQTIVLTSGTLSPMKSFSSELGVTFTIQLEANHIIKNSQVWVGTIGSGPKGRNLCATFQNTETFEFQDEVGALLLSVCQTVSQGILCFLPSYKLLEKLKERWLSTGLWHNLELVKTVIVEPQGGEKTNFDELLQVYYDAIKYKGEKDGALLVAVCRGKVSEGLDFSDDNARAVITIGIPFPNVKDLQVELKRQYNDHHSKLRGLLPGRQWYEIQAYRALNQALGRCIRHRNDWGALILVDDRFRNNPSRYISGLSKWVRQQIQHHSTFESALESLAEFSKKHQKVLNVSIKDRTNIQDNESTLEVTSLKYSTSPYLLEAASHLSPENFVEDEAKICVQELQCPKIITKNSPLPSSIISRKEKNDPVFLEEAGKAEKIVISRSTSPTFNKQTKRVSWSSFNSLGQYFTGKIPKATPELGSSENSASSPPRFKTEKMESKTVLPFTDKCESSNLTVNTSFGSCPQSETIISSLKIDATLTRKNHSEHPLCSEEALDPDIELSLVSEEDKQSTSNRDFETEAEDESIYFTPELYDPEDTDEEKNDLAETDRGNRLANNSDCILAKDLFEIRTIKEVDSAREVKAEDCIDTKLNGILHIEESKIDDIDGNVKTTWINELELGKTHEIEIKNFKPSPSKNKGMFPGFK
UniProt Q8WUW1: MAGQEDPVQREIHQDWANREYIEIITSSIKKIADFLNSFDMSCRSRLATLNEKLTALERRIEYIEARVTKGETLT

Here are results for 29 targets from the supplement of paper PMC10849652.

Compound in the first assay: COc1cc2nc(-c3cc(F)ccc3O)nc(N[C@@H]3CNC[C@H]3C(C)(C)O)c2cc1OC
The experiment in a line: log2 fold change, soluble protein after heating vs DMSO (PISA); higher = thermal stabilisation; K562 lysate, 10 uM; active = over 0.2 and 3.5 SD of the protein, either way, in both replicates (recomputed). An outline of the steps: (§1)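 Thermal stability, expressed as log-two fold change relative to solvent controls, is given from duplicates. Crude K562 extract in PBS pH 7.4 with 1 mM MgCl2, at 1 mg/mL protein, was treated with 10 μM compound for 30 min and heated in aliquots for 3 min across 48°C-58°C. After pooling, adjustment to 0.5% NP-40 at 4°C and centrifugation at 21,000xg for 90 min, supernatant protein was measured by TMTpro 16plex LC-MS/MS with channel sums equalised.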
BIRC2 (UniProt Q13490): the log2 fold change was inactive: -0.007.
In the case of BTN2A1 (UniProt Q7KYR7), the log2 fold change is inactive: 0.067.
As to BAIAP2L1 (UniProt Q9UHR4), the log2 fold change was inactive: -0.009.
Consider BIRC6 (UniProt Q9NR09), for which the log2 fold change is inactive: -0.005.
Same read-out and setting: for BACH1 (UniProt O14867) the value was inactive: -0.011.
The same measure, in the same setting: for BPNT1 (UniProt O95861) the value was inactive: 0.003.
Same read-out and setting: for BTBD6 (UniProt Q96KE9) the value was inactive: 0.134.
On to BAG3 (UniProt O95817), for which the log2 fold change is inactive: 0.003.
The same measure, in the same setting: for BRCC3 (UniProt P46736) the value was inactive: -0.027.
BRIX1 (UniProt Q8TDN6): the log2 fold change was inactive: -0.008.
The same measure, in the same setting: in the case of BNIP1 (UniProt Q12981) it was inactive: 0.004; in that of BCAS2 (UniProt O75934), inactive: -0.018; in that of BSDC1 (UniProt Q9NW68), inactive: -0.031.
In the case of BLVRB (UniProt P30043), the log2 fold change is inactive: 0.009.
Still for that read-out and setting: in the case of BPTF (UniProt Q12830) it was inactive: 0.022; in that of BPHL (UniProt Q86WA6), inactive: -0.028; in that of BCL10 (UniProt O95999), inactive: -0.049.
The same measure, in the same setting: for BROX (UniProt Q5VW32) the value was inactive: -0.005; for BTK isoform 2 (UniProt Q06187), inactive: -0.029; for BCAP29 isoform 2 (UniProt Q9UHQ4), inactive: -0.115.
BCKDK (UniProt O14874): the log2 fold change is inactive: -0.027.
On the same count and under the same terms, for BCCIP isoform 2 (UniProt Q9P287) the value was inactive: -0.034; for BCR (UniProt P11274), inactive: -0.021; for BAG4 (UniProt O95429), inactive: 0.003.
Same read-out and setting: in the case of BLOC1S3 (UniProt Q6QNY0) it was inactive: 0.039; in that of BRCA1 isoform 7 (UniProt P38398), inactive: 0.055.
Still for that read-out and setting: for BRIP1 (UniProt Q9BX63) the value was inactive: 0.122; for BAG2 (UniProt O95816), inactive: -0.03; for BRK1 isoform 2 (UniProt Q8WUW1), inactive: -0.052.

Compound in a further assay: COc1cc2ncnc(Nc3ccc(F)c(Cl)c3)c2cc1OCCCN1CCOCC1 [gefitinib]
The description is as above. An outline of the steps:
as §1
Take BIRC2 (UniProt Q13490): the log2 fold change was inactive: 0.034.
Same read-out and setting: in the case of BTN2A1 (UniProt Q7KYR7) it was inactive: 0.036; in that of BAIAP2L1 (UniProt Q9UHR4), inactive: -0.003.
Still for that read-out and setting: for BIRC6 (UniProt Q9NR09) the value was inactive: -0.025.
Still for that read-out and setting: for BACH1 (UniProt O14867) the value was inactive: 0.015; for BPNT1 (UniProt O95861), inactive: -0.027; for BTBD6 (UniProt Q96KE9), inactive: -0.017.
With BAG3 (UniProt O95817), the log2 fold change was inactive: -0.022.
For the target BRCC3 (UniProt P46736), the log2 fold change was inactive: -0.047.
As for BRIX1 (UniProt Q8TDN6), the log2 fold change was inactive: -0.043.
For BNIP1 (UniProt Q12981), the log2 fold change is inactive: -0.018.
Still for that read-out and setting: for BCAS2 (UniProt O75934) the value was inactive: -0.04; for BSDC1 (UniProt Q9NW68), inactive: -0.017; for BLVRB (UniProt P30043), inactive: 0.027.
The same measure, in the same setting: in the case of BPTF (UniProt Q12830) it was inactive: 0.05; in that of BPHL (UniProt Q86WA6), inactive: 0.009.
For BCL10 (UniProt O95999), the log2 fold change is inactive: -0.011.
For BROX (UniProt Q5VW32), the log2 fold change is inactive: -0.03.
BTK isoform 2 (UniProt Q06187): the log2 fold change was inactive: -0.046.
In the case of BCAP29 isoform 2 (UniProt Q9UHQ4), the log2 fold change is inactive: 0.006.
The same measure, in the same setting: in the case of BCKDK (UniProt O14874) it was inactive: 0.053.
As for BCCIP isoform 2 (UniProt Q9P287), the log2 fold change is inactive: 0.012.
Turning to BCR (UniProt P11274), the log2 fold change was inactive: -0.024.
Still for that read-out and setting: in the case of BAG4 (UniProt O95429) it was inactive: 0.039; in that of BLOC1S3 (UniProt Q6QNY0), inactive: -0.035.
Take BRCA1 isoform 7 (UniProt P38398): the log2 fold change is inactive: 0.05.
As to BRIP1 (UniProt Q9BX63), the log2 fold change was inactive: -0.16.
Regarding BAG2 (UniProt O95816), the log2 fold change is inactive: -0.004.
Consider BRK1 isoform 2 (UniProt Q8WUW1), for which the log2 fold change is inactive: -0.031.
